The list is a part of this screen's results and no random one: its compounds were picked by chemical class. Not every dose and run of a compound is shown. T/C gives the treated animals as a percentage of the vehicle group. Some entries give survivors of the animals treated and no T/C: the source files T/C as zero there, which appears to mark a toxic dose or a test without result, not a measured value. Some doses without a T/C left all or most animals alive at the check, yet need not have been tolerated: survival well below the control is almost never listed, so the zero probably covers shortened survival too. Survivors were counted at the toxicity check, usually on the fifth day, unless a day is given; later deaths do not show. Schedules are NCI's codes, read here as Q, the interval in days (D) or hours (H), X, the number of doses. Signs of the kind (2×) say how often a value occurs here. Some entries hold several experiments; the values are given in rising order. For survival time, the PubChem record calls one and a half times the control and up active, and a quarter to a half above the control has no call in these data; cut-offs in other NCI protocols can differ. Some T/C values are marked as having no survivor count here; that says nothing about deaths at the dose. Some T/C values are followed by the survivors on the day toxicity was checked, most often the fifth; where neither a count nor a note follows, no animal had died by that day.
Test system: L1210 leukemia ip in BDF1 mice, survival T/C
Test: NCI In Vivo Anticancer Drug Screen. Data for tumor model L1210 Leukemia (intraperitoneal) in B6D2F1 (BDF1) mice
Details: T/C endpoint: mean survival time, higher T/C = longer survival
[1] = dose: 50.0 mg/kg/injection, schedule: Q01DX009 (ip), vehicle: Klucel (hydroxypropylcellulose) (HPC)
[2] = dose: 100.0 mg/kg/injection, schedule: Q04DX003 (ip), vehicle: Klucel (hydroxypropylcellulose) (HPC)
[3] = dose: 400.0 mg/kg/injection, schedule: Q04DX003 (ip), vehicle: Klucel (hydroxypropylcellulose) (HPC)

NC(Cc1ccc(N(CCF)CCCl)cc1)C(=O)O (stereo not drawn)
T/C (dose: 0.5 mg/kg/injection, schedule: Q01DX009 (ip), vehicle: carboxymethylcellulose (CMC)): 107 % of control | T/C (dose: 1.0 mg/kg/injection, schedule: Q01DX009 (ip), vehicle: carboxymethylcellulose (CMC)): 106 % of control | T/C (dose: 1.9 mg/kg/injection, schedule: Q01DX009 (ip), vehicle: carboxymethylcellulose (CMC)): 111 % of control | T/C (dose: 2.0 mg/kg/injection, schedule: Q01DX009 (ip), vehicle: carboxymethylcellulose (CMC)): 112 % of control | T/C (dose: 3.8 mg/kg/injection, schedule: Q01DX009 (ip), vehicle: carboxymethylcellulose (CMC)): 118 and 126 % of control | T/C (dose: 7.5 mg/kg/injection, schedule: Q01DX009 (ip), vehicle: carboxymethylcellulose (CMC)): 135 and 142 % of control | T/C (dose: 12.5 mg/kg/injection, schedule: Q01DX001 (ip), vehicle: carboxymethylcellulose (CMC)): 120 % of control | T/C (dose: 15.0 mg/kg/injection, schedule: Q01DX009 (ip), vehicle: carboxymethylcellulose (CMC)): 127 and 170 % of control | T/C (dose: 25.0 mg/kg/injection, schedule: Q01DX001 (ip), vehicle: carboxymethylcellulose (CMC)): 123 and 126 % of control | T/C (dose: 30.0 mg/kg/injection, schedule: Q01DX009 (ip), vehicle: carboxymethylcellulose (CMC)): 147 and 173 % of control | T/C (dose: 44.4 mg/kg/injection, schedule: Q01DX001 (ip), vehicle: carboxymethylcellulose (CMC)): 133 % of control | T/C (dose: 50.0 mg/kg/injection, schedule: Q01DX001 (ip), vehicle: carboxymethylcellulose (CMC)): 129 % of control (2×) | T/C (dose: 60.0 mg/kg/injection, schedule: Q01DX009 (ip), vehicle: carboxymethylcellulose (CMC)): 118 and 127 % of control | T/C (dose: 66.6 mg/kg/injection, schedule: Q01DX001 (ip), vehicle: carboxymethylcellulose (CMC)): 139 % of control | T/C (dose: 100.0 mg/kg/injection, schedule: Q01DX001 (ip), vehicle: carboxymethylcellulose (CMC), evaluated on day 30): 139 and 188 % of control | survivor count (dose: 100.0 mg/kg/injection, schedule: Q01DX001 (ip), vehicle: carboxymethylcellulose (CMC)): 3 of 6 | T/C (dose: 100.0 mg/kg/injection, schedule: Q01DX001 (ip), vehicle: carboxymethylcellulose (CMC), run until all animals had died): 160 % of control | survivor count (dose: 120.0 mg/kg/injection, schedule: Q01DX009 (ip), vehicle: carboxymethylcellulose (CMC)): 1 of 6 and 3 of 6 | survivor count (dose: 150.0 mg/kg/injection, schedule: Q01DX001 (ip), vehicle: carboxymethylcellulose (CMC)): 3 of 6 | survivor count (dose: 200.0 mg/kg/injection, schedule: Q01DX001 (ip), vehicle: carboxymethylcellulose (CMC)): 0 of 6, 1 of 6, 2 of 4 | survivor count (dose: 400.0 mg/kg/injection, schedule: Q01DX001 (ip), vehicle: carboxymethylcellulose (CMC)): 0 of 6 (2×)

O=[N+]([O-])c1ccc(N/N=C/C=C\C=N\Nc2ccc([N+](=O)[O-])cc2[N+](=O)[O-])c([N+](=O)[O-])c1
T/C (dose: 50.0 mg/kg/injection, schedule: Q04DX002 (ip), vehicle: Klucel (hydroxypropylcellulose) (HPC)): 86 % of control | T/C (dose: 100.0 mg/kg/injection, schedule: Q04DX002 (ip), vehicle: Klucel (hydroxypropylcellulose) (HPC)): 108 % of control | T/C (dose: 200.0 mg/kg/injection, schedule: Q04DX002 (ip), vehicle: Klucel (hydroxypropylcellulose) (HPC)): 89 % of control

O=[N+]([O-])c1cc([N+](=O)[O-])c(NNc2ccccc2)c([N+](=O)[O-])c1
T/C [1]: 113 % of control [survivor count not shown] | T/C [2]: 103 % of control [survivor count not shown] | T/C [3]: 103 % of control [survivor count not shown]

COC(=O)CCc1ccc(N(CCCl)CCCl)cc1
T/C (dose: 25.0 mg/kg/injection, schedule: Q01DX009 (ip), vehicle: Klucel (hydroxypropylcellulose) (HPC)): 108 % of control | T/C [1]: 109 % of control [5 of 6 alive] | survivor count (dose: 100.0 mg/kg/injection, schedule: Q01DX009 (ip), vehicle: Klucel (hydroxypropylcellulose) (HPC)): 0 of 6 | T/C [2]: 106 % of control | survivor count (dose: 200.0 mg/kg/injection, schedule: Q01DX009 (ip), vehicle: Klucel (hydroxypropylcellulose) (HPC)): 4 of 6 | T/C (dose: 200.0 mg/kg/injection, schedule: Q04DX003 (ip), vehicle: Klucel (hydroxypropylcellulose) (HPC)): 120 % of control | survivor count (dose: 400.0 mg/kg/injection, schedule: Q01DX009 (ip), vehicle: Klucel (hydroxypropylcellulose) (HPC)): 0 of 6 | T/C [3]: 112 % of control [5 of 6 alive]

O=C(O)CC(ON=C1c2c(cc([N+](=O)[O-])cc2[N+](=O)[O-])-c2cc([N+](=O)[O-])cc([N+](=O)[O-])c21)C(=O)O.c1ccccc1 (stereo not drawn)
T/C (dose: 100.0 mg/kg/injection, schedule: Q04DX002 (ip), vehicle: saline): 99 % of control | T/C (dose: 200.0 mg/kg/injection, schedule: Q04DX002 (ip), vehicle: saline): 92 % of control | T/C (dose: 400.0 mg/kg/injection, schedule: Q04DX002 (ip), vehicle: saline): 92 % of control

— PubChem BioAssay AID248 (DTP/NCI, 2004)
